Data as given in patent US20180282418A1.
No constants are given. Whether binding was seen depends on the method and setting. Binding seen in cells or lysates may run through a third protein. Some entries that bind do so weakly or less than the wild type.

Chains of the proteins cited; added tags and fusions are not shown. Lines headed by an entry give the natural chain unless they say otherwise; changes in a name come on top.
UniProt Q86T13: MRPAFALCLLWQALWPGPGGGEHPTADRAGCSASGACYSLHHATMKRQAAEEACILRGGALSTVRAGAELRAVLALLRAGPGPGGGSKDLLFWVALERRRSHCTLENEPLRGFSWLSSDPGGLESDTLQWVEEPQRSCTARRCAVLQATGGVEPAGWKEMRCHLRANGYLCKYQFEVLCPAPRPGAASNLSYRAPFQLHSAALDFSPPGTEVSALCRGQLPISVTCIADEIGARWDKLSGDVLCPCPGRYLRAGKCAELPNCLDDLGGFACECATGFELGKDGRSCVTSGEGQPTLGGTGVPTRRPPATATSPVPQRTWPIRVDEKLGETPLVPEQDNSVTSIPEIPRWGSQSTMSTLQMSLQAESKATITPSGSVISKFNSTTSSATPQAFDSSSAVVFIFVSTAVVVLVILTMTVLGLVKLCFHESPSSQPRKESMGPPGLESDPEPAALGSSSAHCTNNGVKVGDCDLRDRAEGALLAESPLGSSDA

Target: human CLEC14A extracellular domain protein tagged with human Fc (human) (UniProt Q86T13)
Assay: pre-incubation of CLEC14A-ECD-Fc with antibody before MMRN2 pull-down

B1: CLEC14A monoclonal antibody C4 (antibody, V domains shown)
VH: QVQLQQSGAELMKPGASVKISCKATGYTFSSYWIEWVNRRPGHGLEWIGEILPGSGSTNYNEKFKGKATFTADTSSNTAYMQLSSLTSEDSAVYYCARGGDYDEEYYLMDYWGQGTTLTVSS
VL: QIVLTQSPAIMSASPGEKVTMTCSASSSVSYMYWYQQKPGSSPRLLIYDTSNLASGVPVRFSGSGSGTSYSLTISRMEAEDAATYYCQQWSSYPLTFGAGTKLEIKR
  binding: binds
